Assay results: PMC7708047, “VEZF1–guanine quadruplex DNA interaction regulates alternative polyadenylation and detyrosinase activity of VASH1”
Construct, isoform or probe ends are uncertain for at least one entry. For some assays here: Results from cells or extracts need not show a direct contact. For some assays here: A weaker result is weaker than the reference pair of the same experiment. Protein sequences can lack the tags named with them.

Assays:
[1] = biological target: T1, VEZF1 (endogenous) (Homo sapiens) (UniProt Q14119); test: pull-down, SILAC LC-MS/MS; conditions: protein in an extract, label: biotin
T1 sequence (looked up, limits assumed): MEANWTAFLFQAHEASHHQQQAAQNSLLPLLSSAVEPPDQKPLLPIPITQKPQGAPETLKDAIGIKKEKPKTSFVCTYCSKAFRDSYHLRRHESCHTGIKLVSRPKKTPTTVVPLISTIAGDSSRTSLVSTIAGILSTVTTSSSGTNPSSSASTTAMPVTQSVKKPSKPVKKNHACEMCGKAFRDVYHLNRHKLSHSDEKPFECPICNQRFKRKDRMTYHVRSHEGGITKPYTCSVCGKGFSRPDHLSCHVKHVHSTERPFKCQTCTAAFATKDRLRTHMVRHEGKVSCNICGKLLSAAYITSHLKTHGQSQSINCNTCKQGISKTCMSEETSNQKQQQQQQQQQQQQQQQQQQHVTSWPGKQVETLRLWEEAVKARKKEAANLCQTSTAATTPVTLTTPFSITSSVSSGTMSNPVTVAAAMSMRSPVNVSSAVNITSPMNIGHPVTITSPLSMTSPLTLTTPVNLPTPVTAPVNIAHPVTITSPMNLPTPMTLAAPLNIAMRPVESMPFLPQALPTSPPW

[2] = biological target: T2, VEZF1-3xFlag (Homo sapiens) (UniProt Q14119); test: EMSA; conditions: 100 mM K+, 10 uM Zn2+, EMSA: 25 nM DNA, 10 mM Tris-HCl pH 7.5, 100 mM KCl, 10 uM ZnCl2, 1 mM DTT, 3% glycerol, on ice 30 min, 6% PAGE in TBE pH 8.3, 4 C, recombinant protein, residues 1-521, protein details: C-terminal 3xFlag, label: 5'-TAMRA, folded or branched DNA
T2 sequence (looked up): T1 sequence (looked up, limits assumed)

Sequence: AAAGGGTTAGGGTTAGGGTTAGGGAA [hTEL G4 biotin probe]
- binding result ([1]; folded or branched DNA): binds

Sequence: AAAGGGTTAGTGTTAGTGTTAGGGAA [hTEL M4 biotin probe]
- binding result ([1]; single-stranded DNA): binds more weakly

Sequence: GTGGGAGGTGGAAGTGAAAGAAGGGAAGAGCAGGGAGAGTGGGCC [R1G4-1]
- Kd ([2]; value assigned to G4-1 by order): 649 nM

Sequence: TCGGGAGTGTGGAGGGAGGTGCTGGGCCTGAGCTGAGAGCAGCTTAGGGGGCA [R1G4-2]
- Kd ([2]; value assigned to G4-2 by order): 730 nM

Sequence: TGAGGGTGAGGAGTGTGGGGA [MYC M4 biotin probe]
- binding result ([1]; single-stranded DNA): binds more weakly
